pKd: −log10 of the molar value. For at least one entry, the source does not settle the construct or the ends of the probe. For some assays here: A negative result means that nothing was seen under these conditions. Protein sequences can lack the tags named with them. For some assays here: The comparison behind a weaker result is the experiment's own reference, which may not be listed here. For some assays here: At least one result comes from cells or an extract, where the contact may be indirect.
Tests used:
HNRNPH1 endogenous = target: T1, HNRNPH1 endogenous (UniProt P31943); assay: pull-down; conditions: TC-32 whole-cell lysate; protein in an extract
T1 sequence (looked up, limits assumed): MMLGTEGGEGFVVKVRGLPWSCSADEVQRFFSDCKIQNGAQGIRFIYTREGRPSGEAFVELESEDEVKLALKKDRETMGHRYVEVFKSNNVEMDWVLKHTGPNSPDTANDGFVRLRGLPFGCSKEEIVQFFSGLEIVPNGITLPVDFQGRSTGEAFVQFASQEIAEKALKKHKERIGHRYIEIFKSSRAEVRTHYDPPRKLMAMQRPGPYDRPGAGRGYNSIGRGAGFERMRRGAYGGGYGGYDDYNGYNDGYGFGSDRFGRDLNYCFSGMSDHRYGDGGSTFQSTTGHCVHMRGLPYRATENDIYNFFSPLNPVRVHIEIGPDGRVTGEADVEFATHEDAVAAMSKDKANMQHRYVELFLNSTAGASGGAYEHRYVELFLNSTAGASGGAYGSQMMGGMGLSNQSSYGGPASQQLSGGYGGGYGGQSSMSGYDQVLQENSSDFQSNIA

HNRNPH2 [1] = target: T2, HNRNPH2 (UniProt P55795); assay: BLI; conditions: minimal binding (text also says no binding)
T2 sequence (looked up, limits assumed): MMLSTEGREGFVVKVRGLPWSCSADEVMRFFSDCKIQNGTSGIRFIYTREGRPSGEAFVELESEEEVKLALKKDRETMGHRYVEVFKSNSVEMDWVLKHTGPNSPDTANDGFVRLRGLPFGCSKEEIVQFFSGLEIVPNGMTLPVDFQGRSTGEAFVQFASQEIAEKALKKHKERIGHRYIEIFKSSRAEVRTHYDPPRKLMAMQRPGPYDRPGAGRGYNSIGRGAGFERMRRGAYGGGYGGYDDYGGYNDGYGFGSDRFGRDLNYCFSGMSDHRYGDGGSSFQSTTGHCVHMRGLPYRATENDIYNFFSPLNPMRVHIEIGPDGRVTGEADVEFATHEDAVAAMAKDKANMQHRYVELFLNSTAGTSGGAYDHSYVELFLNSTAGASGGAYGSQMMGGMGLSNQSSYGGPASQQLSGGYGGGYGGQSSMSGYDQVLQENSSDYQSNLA

HNRNPH1 qRRM2-3 = target: T3, HNRNPH1 qRRM2-3 (UniProt P31943); assay: BLI; conditions: 150 mM KCl, value-to-RNA assignment from figure label order
T3 sequence (looked up, limits assumed): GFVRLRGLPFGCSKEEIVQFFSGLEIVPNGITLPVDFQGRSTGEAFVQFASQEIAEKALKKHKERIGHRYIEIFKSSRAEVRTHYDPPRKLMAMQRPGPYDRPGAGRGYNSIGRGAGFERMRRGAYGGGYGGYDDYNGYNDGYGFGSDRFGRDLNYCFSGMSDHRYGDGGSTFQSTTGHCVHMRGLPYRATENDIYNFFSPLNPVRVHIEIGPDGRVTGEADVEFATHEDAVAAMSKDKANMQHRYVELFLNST

HNRNPH2 [2] = target: T2, HNRNPH2; assay: FRET; conditions: 25 mM KCl, no change to 100 nM

| Sequence | binding result (HNRNPH1 endogenous) | binding result (HNRNPH2 [1]) | pKd (HNRNPH1 qRRM2-3) | binding result (HNRNPH2 [2]) |
| --- | --- | --- | --- | --- |
| GGGCGGGGAGGAGGACGCGGUGGAAUGGG [rG3] | binds | binds more weakly | 7.55 | – |
| GGGCGGGGAGGAGGACGCGGUGGAAUGGG [rG3-FRET] | – | – | – | no binding |
| ACCGGGGCAGGGGAAGAGGGGGAUU [rG1] | binds | binds more weakly | 7.61 | – |
| ACCGGGGCAGGGGAAGAGGGGGAUU [rG1-FRET] | – | – | – | no binding |
